# “And” between values parts separate entries of the source, which are not always exact repeats. Equal values may be shown once. Hit rate of the full screen: of about 310,000 compounds, about 17,000 (5.5%) were called active. The shares of active, inactive and inconclusive entries below differ from those in the screen. Calls follow the shape of the dose curve; as a rule, active = well fitted inhibition curve with a large enough effect; inconclusive = small, poorly fitted or top-dose-only effect, or effect the other way; inactive = no such curve, though single readings can be large or run the other way. Potencies of inconclusive entries are doubtful fits and often do not repeat.
# The chains behind the UniProt entries cited, without tags or fusion partners. Where a name states a change or a piece, a line headed by the entry shows the natural chain unless it says otherwise.
# UniProt P51450: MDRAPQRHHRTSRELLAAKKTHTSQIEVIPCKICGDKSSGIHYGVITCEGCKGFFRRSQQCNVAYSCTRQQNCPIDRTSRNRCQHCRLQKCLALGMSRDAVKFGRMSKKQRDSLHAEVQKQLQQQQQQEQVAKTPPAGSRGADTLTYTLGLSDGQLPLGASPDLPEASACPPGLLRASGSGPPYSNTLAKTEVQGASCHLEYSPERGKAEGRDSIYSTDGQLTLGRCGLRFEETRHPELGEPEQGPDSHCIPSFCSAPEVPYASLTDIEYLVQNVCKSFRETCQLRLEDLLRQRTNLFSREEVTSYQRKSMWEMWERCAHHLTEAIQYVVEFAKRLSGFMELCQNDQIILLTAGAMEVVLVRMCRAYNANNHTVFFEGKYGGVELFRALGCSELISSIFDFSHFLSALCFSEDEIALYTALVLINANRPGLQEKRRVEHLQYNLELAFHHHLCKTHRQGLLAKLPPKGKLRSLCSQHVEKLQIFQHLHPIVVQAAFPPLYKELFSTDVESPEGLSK
# Molecular target: Nuclear receptor ROR-gamma (Mus musculus) (UniProt P51450)
# Assay: qHTS for inhibitors of ROR gamma transcriptional activity; also: nearly all actives have a fitted effect of over 60% in size
# Conditions: Drosophila S2 Gal4-RORgamma UAS-luciferase reporter, 20 h; activity change, negative = inhibition: at 53.6 µM (top of the series)
# Summary of the method: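 Luminescence from a UAS-regulated Photinus luciferase reporter in stably transfected Drosophila Schneider cells is measured; decreased signal marks ROR gamma inhibition. Fusion expression is induced by 700 uM copper sulfate for 20 hr.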
# % is scaled to controls: 0 for no effect and ±100 for the full control effect; potency is read from the fitted curve at half-maximal effect.
SMILES,Potency,"activity change, negative = inhibition"
CC(Sc1nnc(C(F)(F)F)n1C)C(=O)Nc1ccc(S(N)(=O)=O)cc1 (centres undefined),inactive,–
Cc1nc(CNC(=O)c2cc(COc3ccc(F)cc3Cl)on2)cs1,"inconclusive: 14.1 µM [activator, single point]",–
CC(C)n1c(/C=C/c2ccccc2)nc2ccccc21,active: 12.6 µM,–
N#C/C(=N\Nc1cccc(C(F)(F)F)c1)C(=O)c1csc(-c2cccnc2)n1,"inconclusive: 3.98 µM [activator, single point]",–
Cc1cc2ncn(/N=C/c3ccc(-c4ccccc4)o3)c2cc1C,active: 11.2 µM,–
CCOc1cc2[nH]c(=S)n(Cc3ccc(C(=O)NCCCN4CCOCC4)cc3)c(=O)c2cc1OCC,"inconclusive: 35.5 µM [inhibitor, single point]",–
Cc1cc(C)n(-c2nc3sc4c(c3c(=O)[nH]2)CCCC4)n1,active: 0.708 µM,–
O=C(Nc1nc(NC(=O)c2ccco2)n(-c2ccccc2)n1)c1ccccc1,active: 0.891 µM,–
CC(=O)c1ccc(NS(=O)(=O)c2ccc(C)cc2)cc1,inactive,–
CCc1ccc(NC(=S)NC(=O)c2c(-c3ccccc3Cl)noc2C)cc1,active: 2.51 µM,–
CC1=NN(/C(=N\c2nnc(C)s2)Nc2ccccc2)[C@H](c2cccc3ccccc23)S1,"inconclusive: 22.4 µM [inhibitor, single point]",–
O=C(O)c1ccc2cc(-c3ccc(O)c(C45CC6CC(CC(C6)C4)C5)c3)ccc2c1,"inconclusive: 3.98 µM [activator, partial curve]",–
COc1ccc(/C=C2\SC(=S)N(CCCC(=O)Nc3ccccn3)C2=O)cc1OC,active: 4.47 µM,–
CS(=O)(=O)N(CC(=O)Nc1ccccc1Sc1ccccc1)c1ccc(F)cc1,"inconclusive: 20 µM [activator, single point]",–
[O-][N+](=Nc1ccccc1)c1ccccc1,inactive,–
O=C(Nc1ccc(O)cc1)c1ccccc1OCc1ccccc1,"inconclusive: 2 µM [activator, partial curve, poor fit]",–
CCOc1ccc(N2CC(C(=O)Nc3ccc(OC)c(S(=O)(=O)N4CCCCC4)c3)CC2=O)cc1 (centres undefined),"inconclusive: 20 µM [activator, single point]",–
O=C(O)C1CC(=O)N(CCc2c[nH]c3ccccc23)C1 (centres undefined),–,inactive: 2.18% [at 10 µM]
O=c1c2cc3c(cc2[nH]c(=S)n1Cc1ccco1)OCO3,inactive,–
COc1ccc(NC(=S)N2CCCN(Cc3cc(C)ccc3C)C2)cc1,"inconclusive: 20 µM [inhibitor, single point]",–
CC(=O)c1ccc(NC(=O)C(C)N(C)CC(=O)Nc2ccc(Cl)cc2)cc1 (centres undefined),"inconclusive: 31.6 µM [inhibitor, single point]",–
COc1ccccc1NC(=O)c1ccccc1Nc1ccccc1,inactive,–
CC(=O)c1ccc(NC(=O)c2ccc(S(=O)(=O)N3CCCC3)cc2)cc1,"inconclusive: 25.1 µM [activator, single point]",–
CCOC(=O)N1CCN(C(=O)C2CCN(C(=O)c3cc4sccc4n3CC)CC2)CC1,"inconclusive: 12.6 µM [activator, partial curve]",–
N#Cc1nc(COc2ccc(Cl)cc2Cl)oc1N1CCN(c2ccccc2)CC1,"inconclusive: 6.31 µM [activator, single point]",–

SMILES,Potency,"activity change, negative = inhibition"
CCCCOc1ccc(-c2cnc3ccccc3n2)cc1,"inconclusive: 12.6 µM [inhibitor, single point]",–
CN(Cc1cc2ccccc2[nH]c1=O)C(=O)c1cccs1,inactive,–
O=C(COC(=O)c1c(Cl)ccc(Cl)c1Cl)NC(=O)NCc1ccccc1,"inconclusive: 3.16 µM [activator, single point]",–
CCOCCCN(Cc1cc2cc(C)cc(C)c2[nH]c1=O)C(=O)N(CC)CC,inactive,–
Cc1ccc(-n2cc(CN3CCN(C(=O)c4ncn[nH]4)CC3)c(-c3ccc(F)cc3)n2)cc1,inactive,–
Cc1ccc(-c2csc(NC(=S)NC(=O)c3cccs3)n2)cc1,active: 2 µM,–
COc1cc(OC)c(NC(=O)CCNC(=O)Cn2ccc3ccccc3c2=O)cc1Cl,"inconclusive: 5.62 µM [inhibitor, single point]",–
C=CCc1cc(/C=C2/NC(=O)N(CC(=O)OC)C2=O)cc(OC)c1O,"inconclusive: 10 µM [activator, partial curve]",–
O=C(NC(=S)Nc1ccccc1N1CCCCC1)c1ccc(F)cc1,active: 3.98 µM,–
Fc1cccc(/C=N/Nc2nccnc2Cl)c1,inactive,–
COCCn1c(SCC(=O)/C=C2\N(C)c3ccccc3C2(C)C)nnc1-c1ccncc1,"inconclusive: 20 µM [activator, single point]",–
CCC(C)(C)NC(=O)C(c1ccc(OC)cc1)N(C(=O)CCC(=O)Nc1cc(C)on1)c1ccccc1F (centres undefined),"inconclusive: 22.4 µM [activator, single point]",–
C[C@@H](O)C(N)C(=O)O (some centres undefined),inactive,–
COc1ccc(N=Cc2nc(-c3ccco3)oc2O)cc1,"inconclusive: 0.141 µM [activator, full curve, poor fit]",–
CSc1nc(C=Nc2ccccc2Cl)c(O)n1Cc1cccc(Cl)c1,"inconclusive: 12.6 µM [inhibitor, partial curve, poor fit]",–
COc1ccc(SC[C@H](CC(C)C)N2CCN(CCc3ccccc3)CCC2=O)cc1,"inconclusive: 31.6 µM [activator, single point]",–
O=C(/C=C/c1cccc([N+](=O)[O-])c1)N1CCN(C(=O)c2ccco2)CC1,"inconclusive: 15.8 µM [activator, single point]",–
O=C1Nc2ccccc2C12Nc1ccccc1-c1nc3ccccc3n12 (centres undefined),"inconclusive: 2.82 µM [inhibitor, single point]",–
COc1cccc(C(=O)C2CCCN(CC3=Cc4cc(OC)ccc4OC3)C2)c1 (centres undefined),inactive,–
COc1ccc(C)cc1Nc1n[n+](-c2ccccc2)c(-c2cccc(Cl)c2Cl)s1,active: 6.31 µM,–
O=C(CC1CC2CCC1C2)NCCc1ccc(Cl)cc1 (centres undefined),inactive,–
C/C(=N\NC(=O)c1cccc(S(=O)(=O)Nc2ccccc2Cl)c1)c1ccco1,"inconclusive: 14.1 µM [inhibitor, single point]",–
COc1cc2cc(-c3ccc(O)cc3O)nc(C)c2cc1OC,inactive,–
Cc1ccc(NCc2ccc(O)c3ncccc23)cc1,active: 1 µM,–
NNC(=S)Nc1c(F)cc(F)cc1Br,active: 3.98 µM,–

SMILES,Potency,"activity change, negative = inhibition"
Cc1noc(C)c1S(=O)(=O)Nc1ccc(C(=O)Nc2ccc(OC(F)(F)F)cc2)cc1,"inconclusive: 15.8 µM [activator, partial curve]",–
CCc1ccc(CNC(=O)c2ccc3c(c2)NC(=O)C(N2CCOCC2)S3)cc1 (centres undefined),inactive,–
Cc1c(C(=O)N(C)Cc2ccccc2)oc2ccc(S(=O)(=O)N3CCCC3)cc12,"inconclusive: 22.4 µM [inhibitor, single point]",–
CC(C)(Oc1ccc(Cl)cc1)C(=O)NCc1ccncc1,"inconclusive: 35.5 µM [activator, single point]",–
CN(Cc1cccc(F)c1)CC(O)COCc1ccccc1Cl (centres undefined),inactive,–
CC(=C/c1ccccc1)/C=N/NC(=O)c1nnn(-c2nonc2N)c1CN1CCC(C)CC1,"inconclusive: 7.08 µM [activator, full curve]",–
COc1ccc(CN(Cc2nc3ccccc3c(=O)[nH]2)C(=O)NC2CCCCC2)cc1,active: 12.6 µM,–
Cc1cccc(C)c1N1CCN(C(=O)Nc2ccc3c(c2)OCCO3)CC1,"inconclusive: 2.51 µM [activator, partial curve]",–
CC(CC(=O)Nc1ccc(S(=O)(=O)Nc2ncccn2)cc1)c1ccccc1 (centres undefined),inactive,–
Cc1ccc(C(=O)NC(=S)Nc2ccc(-c3cc4ccccc4oc3=O)cc2)c(C)c1,inactive,–
Cc1ccc(NC(=S)Nc2cccc3cnccc23)cc1,"inconclusive: 35.5 µM [inhibitor, single point]",–
COCCNC(=S)N(CCc1c(C)[nH]c2ccc(C)cc12)Cc1cccnc1,inactive,–
COc1cc(C(=O)Nc2ccc3c(c2)Cc2cc(NC(=O)c4cc(OC)c(OC)c(OC)c4)ccc2-3)cc(OC)c1OC,"inconclusive: 12.6 µM [inhibitor, single point]",–
COc1cc(NC(=O)CSc2nccc(C)n2)c(C(=O)O)cc1OC,inactive,–
CCOC(=O)c1c(-c2ccsc2)csc1N,"inconclusive: 22.4 µM [inhibitor, single point]",–
COc1ccccc1NNC(=O)c1cccnc1Oc1ccccc1,"inconclusive: 11.2 µM [activator, partial curve, poor fit]",–
O=C(CSc1ccccc1)N1CCc2ccccc21,"inconclusive: 0.199 µM [activator, full curve, poor fit]",–
CSCc1nnc(NC(=O)c2ccc(S(=O)(=O)N(C)C)cc2)o1,active: 2 µM,–
OCCC1CN(Cc2ccc(Oc3ncccn3)cc2)CCN1C1CCCC1 (centres undefined),inactive,–
COc1ccc(-c2cc(Cl)cc3c(=O)c4ccccc4n(C)c23)cc1F,inactive,–
O=C(c1ccc(F)cc1)C(CN1CCOCC1)c1ccccc1 (centres undefined),active: 5.62 µM,–
CCOc1ccc(CN(CCC#N)C(=S)NC(=O)c2ccccc2)cc1,active: 0.398 µM,–
C=CC(=O)OCCOCCOCCOCCOC(=O)C=C,"inconclusive: 15.8 µM [inhibitor, single point] and inconclusive: 35.5 µM [inhibitor, single point]",–
COc1ccc(N/N=C(/C(N)=O)C2=NC(C)(C)Cc3ccccc32)cc1,"inconclusive: 12.6 µM [activator, partial curve]",–

# Source: PubChem BioAssay AID2551 (National Center for Advancing Translational Sciences (NCATS), 2010)
